What all share (test): co-IP; pooled rat SMC lysate in RIPA buffer, precleared with anti-species-specific IgG beads; antibodies to EDNRB, EDNRA, Myocardin and SRF 1 h at 4°C, protein A/G agarose beads overnight at 4°C; western blotting
The target of test [1] is T1, Myocardin (rat (endogenous in rat aortic SMCs)) (UniProt Q8R5I7).
T1 sequence: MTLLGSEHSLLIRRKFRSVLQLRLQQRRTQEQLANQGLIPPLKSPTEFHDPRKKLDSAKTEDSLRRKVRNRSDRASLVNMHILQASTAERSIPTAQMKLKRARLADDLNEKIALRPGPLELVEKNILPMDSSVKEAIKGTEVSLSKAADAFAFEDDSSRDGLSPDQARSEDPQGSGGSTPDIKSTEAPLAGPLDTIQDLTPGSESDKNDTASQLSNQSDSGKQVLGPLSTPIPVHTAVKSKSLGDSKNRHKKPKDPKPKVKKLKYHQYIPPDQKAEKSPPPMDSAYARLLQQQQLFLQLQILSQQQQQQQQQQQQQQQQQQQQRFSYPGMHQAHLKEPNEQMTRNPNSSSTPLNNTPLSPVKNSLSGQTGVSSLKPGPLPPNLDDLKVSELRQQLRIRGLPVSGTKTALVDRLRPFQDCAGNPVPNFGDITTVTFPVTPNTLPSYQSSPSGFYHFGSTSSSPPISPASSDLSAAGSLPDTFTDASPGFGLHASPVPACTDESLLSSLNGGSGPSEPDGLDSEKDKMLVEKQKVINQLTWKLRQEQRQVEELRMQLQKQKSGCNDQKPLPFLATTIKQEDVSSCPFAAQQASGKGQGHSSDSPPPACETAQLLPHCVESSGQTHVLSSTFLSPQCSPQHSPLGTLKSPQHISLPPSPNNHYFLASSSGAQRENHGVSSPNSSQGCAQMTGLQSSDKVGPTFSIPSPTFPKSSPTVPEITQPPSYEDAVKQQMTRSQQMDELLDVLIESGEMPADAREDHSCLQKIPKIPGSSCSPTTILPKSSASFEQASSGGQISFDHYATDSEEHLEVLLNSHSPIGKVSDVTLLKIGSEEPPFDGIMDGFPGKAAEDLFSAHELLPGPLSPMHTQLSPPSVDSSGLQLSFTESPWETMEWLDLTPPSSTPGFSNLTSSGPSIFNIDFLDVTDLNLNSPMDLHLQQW

The target in test [2] is T2, endothelin receptor type B (EDNRB) (rat (endogenous in rat aortic SMCs)) (UniProt P21451).
T2 sequence: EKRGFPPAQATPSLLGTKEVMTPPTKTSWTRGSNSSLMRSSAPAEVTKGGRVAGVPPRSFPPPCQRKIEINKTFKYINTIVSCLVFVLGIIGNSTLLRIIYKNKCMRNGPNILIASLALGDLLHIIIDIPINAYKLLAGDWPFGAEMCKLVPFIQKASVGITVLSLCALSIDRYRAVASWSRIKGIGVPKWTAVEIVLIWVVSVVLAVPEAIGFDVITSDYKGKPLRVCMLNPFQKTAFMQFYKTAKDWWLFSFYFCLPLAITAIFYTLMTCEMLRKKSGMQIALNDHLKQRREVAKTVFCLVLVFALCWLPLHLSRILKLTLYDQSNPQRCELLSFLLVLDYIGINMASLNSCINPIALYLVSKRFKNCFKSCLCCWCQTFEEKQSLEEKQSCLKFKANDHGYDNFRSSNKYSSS

Test [3] addresses T3, serum response factor (SRF) (rat (endogenous in rat aortic SMCs)) (UniProt D3ZHH8).
T3 sequence: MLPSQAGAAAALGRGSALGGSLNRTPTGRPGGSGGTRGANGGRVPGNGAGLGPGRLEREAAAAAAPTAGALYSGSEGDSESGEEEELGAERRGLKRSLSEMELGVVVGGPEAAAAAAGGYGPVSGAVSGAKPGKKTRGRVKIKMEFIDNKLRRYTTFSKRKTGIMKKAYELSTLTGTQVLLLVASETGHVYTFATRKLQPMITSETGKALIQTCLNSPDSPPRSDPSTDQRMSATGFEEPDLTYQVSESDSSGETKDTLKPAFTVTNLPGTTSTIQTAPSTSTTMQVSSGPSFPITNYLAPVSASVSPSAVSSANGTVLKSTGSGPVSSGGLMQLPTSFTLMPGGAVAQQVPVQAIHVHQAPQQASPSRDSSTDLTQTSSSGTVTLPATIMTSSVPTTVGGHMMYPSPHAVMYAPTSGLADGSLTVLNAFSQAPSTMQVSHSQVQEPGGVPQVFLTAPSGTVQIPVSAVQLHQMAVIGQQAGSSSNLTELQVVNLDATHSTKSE

Test [4] has as its target T4, serum response factor (SRF) (rat (endogenous in rat aortic SMCs)), D3ZHH8.
T4 chain: T3 sequence
Conditions: remark: other sources report otherwise.

Results are given in words; binding and its absence hold for the method and conditions named. In cells and extracts the contact can be indirect. Some results given as binding are weak or reduced against the parent protein; the word gives no strength.

B1: endothelin receptor type A (EDNRA) (receptor, UniProt P26684 21-426)
chain: DNAERYSANLSSHVEDFTPFPGTEFNFLGTTLQPPNLALPSNGSMHGYCPQQTKITTAFKYINTVISCTIFIVGMVGNATLLRIIYQNKCMRNGPNALIASLALGDLIYVVIDLPINVFKLLAGRWPFDHNDFGVFLCKLFPFLQKSSVGITVLNLCALSVDRYRAVASWSRVQGIGIPLITAIEIVSIWILSFILAIPEAIGFVMVPFEYKGEQHRTCMLNATTKFMEFYQDVKDWWLFGFYFCMPLVCTAIFYTLMTCEMLNRRNGSLRIALSEHLKQRREVAKTVFCLVVIFALCWFPLHLSRILKKTVYDEMDKNRCELLSFLLLMDYIGINLATMNSCINPIALYFVSKKFKNCFQSCLCCCCHQSKSLMTSVPMNGTSIQWKNQEQNHNTERSSHKDSMN
For B1, the binding result in test [1], in test [2] and in test [3] was “binds” throughout.

B2: Myocardin, Q8R5I7 1-938 (protein)
chain: T1 sequence
As for B2, the binding result in test [4] is given as “binds”.

B3: endothelin receptor type B (EDNRB) (receptor, UniProt P21451 27-442)
chain: T2 sequence
Turning to B3, the binding result in test [1] and in test [3] was “binds” each time.

Values taken from article PMC8810813.
